Earlier results in patent publication US4944949A, “Pharmaceutical delivery systems” (priority 1986, dated 1990).

Experiments:
[1] = in vivo
[2] = tested on: plasma proteins

In the case of `COc1ccc2cc([C@H](C)C(=O)O)ccc2c1` [Naproxen], the absorption [1] is listed as “readily absorbed” and the “bound to plasma proteins” value [2] is listed as “more than 99%”.
